Assay [1] deals with KRAB-associated protein 1 (KAP1) (human (endogenous in 293FT)) (UniProt Q13263). Description: native gel or EMSA; nuclear extracts of transduced 293FT cells with 32P-labelled MLV-PBS probe; anti-KAP1 monoclonal antibody added for super-shift of the protein-DNA complex; 8% gel. (A gel shift assay detects complexes by their altered migration in electrophoresis.)
For assay [2] the target is unchanged. Description: co-IP; lysates of 293FT cells transduced with the lentiviral vectors; anti-KAP1 polyclonal or anti-FLAG monoclonal antibody on Dynabeads protein G, 15 min at room temperature; Western blot with anti-DDDDK tag or anti-KAP1 antibodies. (In general: In western blotting, separated proteins are transferred to a membrane and probed.)

Protein sequences, listed by entry. Tags and fused reporters are not part of them. Lines headed by an entry give the natural chain unless they say otherwise; changes in a name come on top. Chains listed by the source or under a name are the forms on record and can include a tag or linker.
UniProt Q13263: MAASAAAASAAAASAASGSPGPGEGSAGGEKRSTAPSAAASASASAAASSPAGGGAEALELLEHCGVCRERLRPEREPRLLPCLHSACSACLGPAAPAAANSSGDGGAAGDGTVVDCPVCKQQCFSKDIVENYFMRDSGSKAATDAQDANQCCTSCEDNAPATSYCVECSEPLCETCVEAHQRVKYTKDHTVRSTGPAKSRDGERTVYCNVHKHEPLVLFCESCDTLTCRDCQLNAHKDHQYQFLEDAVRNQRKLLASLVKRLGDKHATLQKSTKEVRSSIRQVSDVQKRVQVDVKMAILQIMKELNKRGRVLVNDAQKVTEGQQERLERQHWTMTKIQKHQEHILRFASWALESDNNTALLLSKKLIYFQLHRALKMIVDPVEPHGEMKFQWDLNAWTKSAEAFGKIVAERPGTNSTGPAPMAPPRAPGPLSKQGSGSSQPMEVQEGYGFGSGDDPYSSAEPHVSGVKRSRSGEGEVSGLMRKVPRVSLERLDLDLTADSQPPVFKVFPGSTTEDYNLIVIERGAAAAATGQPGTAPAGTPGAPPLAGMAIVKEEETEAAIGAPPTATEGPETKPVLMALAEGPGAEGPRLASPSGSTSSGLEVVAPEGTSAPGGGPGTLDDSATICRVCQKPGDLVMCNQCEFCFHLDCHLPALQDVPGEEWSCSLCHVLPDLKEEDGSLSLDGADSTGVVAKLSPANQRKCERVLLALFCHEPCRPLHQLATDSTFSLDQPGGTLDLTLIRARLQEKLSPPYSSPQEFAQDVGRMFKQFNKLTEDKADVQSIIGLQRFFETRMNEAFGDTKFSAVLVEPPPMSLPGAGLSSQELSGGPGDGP
intact ZFP809 (zinc finger protein 809), FLAG-tagged (G3X9G7-2, form named): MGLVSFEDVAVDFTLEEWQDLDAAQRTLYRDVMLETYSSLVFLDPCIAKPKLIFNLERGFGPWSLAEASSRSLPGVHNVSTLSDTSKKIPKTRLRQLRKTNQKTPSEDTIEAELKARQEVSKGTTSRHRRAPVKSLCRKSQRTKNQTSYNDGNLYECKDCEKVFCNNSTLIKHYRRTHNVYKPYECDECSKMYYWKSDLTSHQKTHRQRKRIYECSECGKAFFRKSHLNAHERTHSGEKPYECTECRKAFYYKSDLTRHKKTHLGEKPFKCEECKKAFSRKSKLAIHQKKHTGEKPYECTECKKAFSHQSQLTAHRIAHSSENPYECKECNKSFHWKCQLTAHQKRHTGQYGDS

No constants are given. Whether binding was seen depends on the method and setting. For some assays here: Binding seen in cells or lysates may run through a third protein. Some binding calls cover weakened binding; strength is not graded here.

Take “intact ZFP809 (zinc finger protein 809), FLAG-tagged (from UniProt G3X9G7-2 1-354)”: the binding entry in assay [1] and in assay [2] was “binds” throughout.

Values taken from article PMC4587795.
